The effect of the compound repeats well; differences between the knockouts mostly do not.
Test system: BT-20
Test: relative cell number vs DMSO control (72 h) (% of DMSO); higher = less growth inhibition (more cells)
Description: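 QMAP-Seq: a pool of 5 breast cancer cell lines (ZR-75-1, SKBR3, HCC-38, MDA-MB-231, BT-20), each carrying 12 doxycycline-inducible Cas9 sgRNA perturbations (11 knockouts plus non-targeting sgNT), was treated with compounds for 72 h at four 10-fold doses (10 nM-10 uM or 1 nM-1 uM range). Barcodes were amplified and sequenced, and cell number was interpolated from 293T spike-in standard curves. The result is expressed as % of the median of DMSO wells. Two biological replicates.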

C#Cc1cccc(Nc2ncnc3cc(OCCOC)c(OCCOC)cc23)c1 [Erlotinib]
Conditions | relative cell number
sgRNA knockout: sgATF3, 10 nM | 114
sgRNA knockout: sgATF3, 100 nM | 96.5
sgRNA knockout: sgATF3, 1000 nM | 98.1
sgRNA knockout: sgATF3, 10000 nM | 73.3
sgRNA knockout: sgATF4, 10 nM | 142
sgRNA knockout: sgATF4, 100 nM | 83.2
sgRNA knockout: sgATF4, 1000 nM | 94.2
sgRNA knockout: sgATF4, 10000 nM | 81.5
sgRNA knockout: sgATF6, 10 nM | 123
sgRNA knockout: sgATF6, 100 nM | 102
sgRNA knockout: sgATF6, 1000 nM | 97.1
sgRNA knockout: sgATF6, 10000 nM | 75.6
sgRNA knockout: sgATG7, 10 nM | 124
sgRNA knockout: sgATG7, 100 nM | 89.8
sgRNA knockout: sgATG7, 1000 nM | 106
sgRNA knockout: sgATG7, 10000 nM | 82.2
sgRNA knockout: sgERN1, 10 nM | 112
sgRNA knockout: sgERN1, 100 nM | 88.5
sgRNA knockout: sgERN1, 1000 nM | 102
sgRNA knockout: sgERN1, 10000 nM | 73.9
sgRNA knockout: sgHSF1, 10 nM | 128
sgRNA knockout: sgHSF1, 100 nM | 97.4
sgRNA knockout: sgHSF1, 1000 nM | 93.1
sgRNA knockout: sgHSF1, 10000 nM | 81.3
sgRNA knockout: sgHSF2, 10 nM | 109
sgRNA knockout: sgHSF2, 100 nM | 88.4
sgRNA knockout: sgHSF2, 1000 nM | 95.3
sgRNA knockout: sgHSF2, 10000 nM | 75.3
sgRNA knockout: sgKEAP1, 10 nM | 111
sgRNA knockout: sgKEAP1, 100 nM | 98.9
sgRNA knockout: sgKEAP1, 1000 nM | 95.9
sgRNA knockout: sgKEAP1, 10000 nM | 72.9
sgRNA knockout: sgNFE2L2, 10 nM | 107
sgRNA knockout: sgNFE2L2, 100 nM | 87.9
sgRNA knockout: sgNFE2L2, 1000 nM | 108
sgRNA knockout: sgNFE2L2, 10000 nM | 75.8
sgRNA knockout: sgSLC35F2, 10 nM | 116
sgRNA knockout: sgSLC35F2, 100 nM | 100
sgRNA knockout: sgSLC35F2, 1000 nM | 85.8
sgRNA knockout: sgSLC35F2, 10000 nM | 83.3
sgRNA knockout: sgXBP1, 10 nM | 108
sgRNA knockout: sgXBP1, 100 nM | 81
sgRNA knockout: sgXBP1, 1000 nM | 108.2
sgRNA knockout: sgXBP1, 10000 nM | 68.7

COc1cc2nccc(Oc3ccc(NC(=O)C4(C(=O)Nc5ccc(F)cc5)CC4)cc3)c2cc1OC [Cabozantinib]
Conditions | relative cell number
sgRNA knockout: sgATF3, 10 nM | 99.8
sgRNA knockout: sgATF3, 100 nM | 98.3
sgRNA knockout: sgATF3, 1000 nM | 101
sgRNA knockout: sgATF3, 10000 nM | 58.9
sgRNA knockout: sgATF4, 10 nM | 99.9
sgRNA knockout: sgATF4, 100 nM | 111
sgRNA knockout: sgATF4, 1000 nM | 90.9
sgRNA knockout: sgATF4, 10000 nM | 58.5
sgRNA knockout: sgATF6, 10 nM | 103
sgRNA knockout: sgATF6, 100 nM | 81.444
sgRNA knockout: sgATF6, 1000 nM | 82.6
sgRNA knockout: sgATF6, 10000 nM | 55.5
sgRNA knockout: sgATG7, 10 nM | 114
sgRNA knockout: sgATG7, 100 nM | 93
sgRNA knockout: sgATG7, 1000 nM | 110
sgRNA knockout: sgATG7, 10000 nM | 61
sgRNA knockout: sgERN1, 10 nM | 95.2
sgRNA knockout: sgERN1, 100 nM | 90.9
sgRNA knockout: sgERN1, 1000 nM | 106
sgRNA knockout: sgERN1, 10000 nM | 59.4
sgRNA knockout: sgHSF1, 10 nM | 107
sgRNA knockout: sgHSF1, 100 nM | 105
sgRNA knockout: sgHSF1, 1000 nM | 88.3
sgRNA knockout: sgHSF1, 10000 nM | 58.2
sgRNA knockout: sgHSF2, 10 nM | 95.9
sgRNA knockout: sgHSF2, 100 nM | 103
sgRNA knockout: sgHSF2, 1000 nM | 95.9
sgRNA knockout: sgHSF2, 10000 nM | 62.2
sgRNA knockout: sgKEAP1, 10 nM | 94.9
sgRNA knockout: sgKEAP1, 100 nM | 90.3
sgRNA knockout: sgKEAP1, 1000 nM | 88.5
sgRNA knockout: sgKEAP1, 10000 nM | 56.8
sgRNA knockout: sgNFE2L2, 10 nM | 121
sgRNA knockout: sgNFE2L2, 100 nM | 99.4
sgRNA knockout: sgNFE2L2, 1000 nM | 116
sgRNA knockout: sgNFE2L2, 10000 nM | 56.4
sgRNA knockout: sgSLC35F2, 10 nM | 109
sgRNA knockout: sgSLC35F2, 100 nM | 101
sgRNA knockout: sgSLC35F2, 1000 nM | 94
sgRNA knockout: sgSLC35F2, 10000 nM | 68
sgRNA knockout: sgXBP1, 10 nM | 93.5
sgRNA knockout: sgXBP1, 100 nM | 106
sgRNA knockout: sgXBP1, 1000 nM | 102
sgRNA knockout: sgXBP1, 10000 nM | 54.9

COc1cc2c(cc1-c1c(C)noc1C)ncc1[nH]c(=O)n([C@H](C)c3ccccn3)c12 [IBET151]
Conditions | relative cell number
sgRNA knockout: sgATF3, 10 nM | 83.7
sgRNA knockout: sgATF3, 100 nM | 86.5
sgRNA knockout: sgATF3, 1000 nM | 71.7
sgRNA knockout: sgATF3, 10000 nM | 61.3
sgRNA knockout: sgATF4, 10 nM | 84.1
sgRNA knockout: sgATF4, 100 nM | 98.8
sgRNA knockout: sgATF4, 1000 nM | 67.8
sgRNA knockout: sgATF4, 10000 nM | 53.1
sgRNA knockout: sgATF6, 10 nM | 95.69
sgRNA knockout: sgATF6, 100 nM | 88.5
sgRNA knockout: sgATF6, 1000 nM | 70.2
sgRNA knockout: sgATF6, 10000 nM | 56.4
sgRNA knockout: sgATG7, 10 nM | 84.2
sgRNA knockout: sgATG7, 100 nM | 85.2
sgRNA knockout: sgATG7, 1000 nM | 74.1
sgRNA knockout: sgATG7, 10000 nM | 60.4
sgRNA knockout: sgERN1, 10 nM | 77.3
sgRNA knockout: sgERN1, 100 nM | 74.5
sgRNA knockout: sgERN1, 1000 nM | 72.5
sgRNA knockout: sgERN1, 10000 nM | 57.3
sgRNA knockout: sgHSF1, 10 nM | 91.2
sgRNA knockout: sgHSF1, 100 nM | 81.2
sgRNA knockout: sgHSF1, 1000 nM | 74.1
sgRNA knockout: sgHSF1, 10000 nM | 63
sgRNA knockout: sgHSF2, 10 nM | 69.3
sgRNA knockout: sgHSF2, 100 nM | 93
sgRNA knockout: sgHSF2, 1000 nM | 63.1
sgRNA knockout: sgHSF2, 10000 nM | 53.9
sgRNA knockout: sgKEAP1, 10 nM | 91.6
sgRNA knockout: sgKEAP1, 100 nM | 101
sgRNA knockout: sgKEAP1, 1000 nM | 65
sgRNA knockout: sgKEAP1, 10000 nM | 57.92
sgRNA knockout: sgNFE2L2, 10 nM | 88.7
sgRNA knockout: sgNFE2L2, 100 nM | 82.29
sgRNA knockout: sgNFE2L2, 1000 nM | 74.7
sgRNA knockout: sgNFE2L2, 10000 nM | 68.3
sgRNA knockout: sgSLC35F2, 10 nM | 90.1
sgRNA knockout: sgSLC35F2, 100 nM | 78.3
sgRNA knockout: sgSLC35F2, 1000 nM | 72.8
sgRNA knockout: sgSLC35F2, 10000 nM | 60.6
sgRNA knockout: sgXBP1, 10 nM | 99.6
sgRNA knockout: sgXBP1, 100 nM | 89.5
sgRNA knockout: sgXBP1, 1000 nM | 69.7
sgRNA knockout: sgXBP1, 10000 nM | 62.5

Source: the supplement of paper PMC7661543
